This is an account of results in PMC10553830, “Functional and structural analyses reveal that a dual domain sialidase protects bacteria from complement killing through desialylation of complement factors” (PLOS Pathogens, 2023).

For this assay, the target named is T1, recombinant CBM protein (N-terminal carbohydrate-binding module of PG0352) (Porphyromonas gingivalis W83) (UniProt Q7MX62).
T1 sequence: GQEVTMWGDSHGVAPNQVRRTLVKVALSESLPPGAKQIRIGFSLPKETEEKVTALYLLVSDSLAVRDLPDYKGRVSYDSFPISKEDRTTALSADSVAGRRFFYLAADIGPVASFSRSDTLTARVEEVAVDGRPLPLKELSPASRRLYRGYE
Kind of assay: affinity purification with mass spectrometry; rCBM (or control PG1589) bound to Ni-NTA agarose, incubated with human serum diluted to 50% (v/v) in PBS overnight at 4°C; washed with 300 mM NaCl, 50 mM NaH2PO4, 10 mM imidazole, pH 8.0; SDS-PAGE, bands excised for nano-LC-MS/MS; only the target purified.

No constants are given. Whether binding was seen depends on the method and setting. In cells and extracts the contact can be indirect. Here binding means that the protein was enriched with, or labelled near, the bait; the list need not be complete.

As for “immunoglobulin lambda-like polypeptide 5 (from UniProt B9A064 36-214)”, the binding result is listed as “binds”.
